Test results from paper PMC3404119.
For at least one entry, the source does not settle the construct or the ends of the probe. For part of these data: Where a protein sequence is shown, tags need not be part of it.

How the values were obtained:
[1] = molecular target: T1, Her1-GFP homodimer (zebrafish (Danio rerio)) (UniProt Q90463); assay: MITOMI; details: PPARgamma-mCherry co-present (non-interacting control); TnT SP6 wheat germ expression extract on MITOMI chip, 3 h at room temperature; salt and pH not stated; PBS used for washing; high values mean tight binding; protein translated in vitro; protein details: C-terminal GFP; label: Cy5; only the motif is given; counted as no binding
T1 sequence (looked up, limits assumed): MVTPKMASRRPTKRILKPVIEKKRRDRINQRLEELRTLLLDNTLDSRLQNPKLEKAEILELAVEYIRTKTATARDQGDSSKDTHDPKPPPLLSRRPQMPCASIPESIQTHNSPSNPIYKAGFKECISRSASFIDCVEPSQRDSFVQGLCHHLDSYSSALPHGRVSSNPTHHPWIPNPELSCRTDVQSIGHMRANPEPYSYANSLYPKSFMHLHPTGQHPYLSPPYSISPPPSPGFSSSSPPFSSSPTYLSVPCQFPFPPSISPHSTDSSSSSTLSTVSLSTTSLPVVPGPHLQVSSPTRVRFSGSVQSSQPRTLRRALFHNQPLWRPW

[2] = tested on: Her7 (coupled to chip, Fig 2D) + Hes6-mCherry; assay: MITOMI; details: Her7:Hes6 heterodimer, Her7 coupled to chip and Hes6-mCherry in solution; TnT SP6 wheat germ expression extract on MITOMI chip, 3 h at room temperature; salt and pH not stated; PBS used for washing; high values mean tight binding; protein translated in vitro; label: Cy5; only the motif is given; counted as no binding

| Sequence | binding signal (relative affinity (strongest site = 1)) [1] | binding signal (relative affinity (strongest site = 1)) [2] |
| --- | --- | --- |
| TCCCACGGGAAT (double strand) [34] | 0.0103 | 0.0103 |
| CTCCACAAACCC (double strand) [46] | 0.0105 | 0.0131 |
| GCTCAGGTGCGT (double strand) [45] | 0.00829 | 0.0134 |
| CTCAAAAAACCC (double strand) [47] | 0.0105 | 0.0137 |
| TCACACCTGTGCAG (double strand) [44] | 0.00943 |  |
